# Results from PubChem BioAssay AID2685 (National Center for Advancing Translational Sciences (NCATS), 2010).
# The other results are listed elsewhere or left out. These are further read-outs of the screen, such as a control signal, another cell line or another target. No call is given for them. Compounds called inactive in the main read-out are mostly missing here. Potencies come from curve fits of mixed quality, noted in brackets.
# Assay: qHTS Assay for Lipid Storage Modulators in Drosophila S3 Cells;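 for cell number change: cells counted by Cell Tracker Red CMTPX staining in the red channel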
# Conditions: BODIPY lipid droplet fluorescence, 18-24 h; for cell number change: measured here: cell count max response, cells fed with added oleic acid
# Method in brief: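 Drosophila S3 cells got compounds at several concentrations plus oleic acid (400 uM solution). Laser-scanning cytometry with 488 nm excitation read lipid droplets at 500-530 nm and cells at 575-640 nm. Percent activity was relative to 20 uM Triacsin C.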
# [1] = measured here: lipid fluorescence (Fed channel) AC50, cells fed with added oleic acid
# [2] = measured here: cell number channel AC50, cells fed with added oleic acid
Structure (SMILES),cell number change [%],AC50 [1],AC50 [2]
Cc1cc(C)cc(C(=O)O/N=C(\N)c2ccc(Br)cc2)c1,-25.5,"0.103 µM [falling, full curve, poor fit]",–
COc1cccc(N=c2oc3ccc(OC)cc3cc2-c2nc3ccccc3[nH]2)c1,-24.2,"0.13 µM [rising, full curve, poor fit]","3.66 µM [falling, single point]"
COc1cc(C(=O)OC2CSCC2NC(=O)c2ccccc2)cc(OC)c1OC (stereo not given),10.8,"14.6 µM [rising, partial curve, poor fit]",–
COc1ccc(Oc2ccc(C(F)(F)F)cc2NC(=O)c2ccc(F)cc2)cc1,11.8,–,–
COc1ccccc1NC(=O)[C@H](COCc1ccccc1)NC(=O)OC(C)(C)C,-36.3,"2.31 µM [rising, partial curve]","32.6 µM [falling, single point]"
COC(Cc1nnc(SC)n1-c1ccc(Cl)cc1)OC,22.1,–,–
C/C(=N\Nc1nc(-c2cc(C)ccc2C)cs1)c1cc2c(ccc3ccccc32)oc1=O,27.3,"2.59 µM [rising, partial curve]","0.92 µM [rising, full curve, poor fit]"
CCOC(=O)c1ccc(-c2ccc(C3Nc4ccccc4C(=O)N3O)o2)cc1 (stereo not given),5.1,"23.1 µM [falling, partial curve, poor fit]",–
CCOC(=O)CN(C)Cc1cn[nH]c1-c1ccc2cc(OC)ccc2c1,-44.9,"20.6 µM [falling, single point]","5.17 µM [falling, full curve]"
COc1ccc2oc(C(=O)Nc3nnc(C)s3)c(C)c2c1,-42.2,"3.26 µM [falling, partial curve]","29.1 µM [falling, single point]"
O=C(/C=C/c1cccc([N+](=O)[O-])c1)N1CC[C@@]2(O)CCCC[C@H]2C1,30.6,"0.103 µM [rising, full curve, poor fit]","3.26 µM [rising, partial curve]"
Cc1cc(=O)c2cc(NC(=O)c3ccccc3Cl)ccc2[nH]1,2.91,–,–
COc1ccc(N2CCN(C(=O)CN3C(=O)NC4(CCCc5ccccc54)C3=O)CC2)cc1 (stereo not given),-10.8,–,–
CC(C)C(=O)Nc1ncc(Cc2cccc(Cl)c2)s1,32.4,"0.00517 µM [rising, full curve, poor fit]",–
O=C(CCc1ccccc1)NNC(=O)Nc1ccc(F)c(Cl)c1,-21.8,"29.1 µM [falling, single point]",–
O=C(COC(=O)CC(c1ccccc1)c1ccccc1)Nc1ccc(F)c(F)c1,-65.6,–,"23.1 µM [falling, single point]"
CCS(=O)(=O)Nc1c(C(=O)O)[nH]c2ccccc12,–,"0.651 µM [falling, single point]","0.731 µM [falling, full curve]"
CCCCn1nnc(NC(=O)c2ccc(-c3ccccc3)cc2)n1,24.2,"18.4 µM [rising, single point]",–
CSc1nc(NNC=O)cc(Oc2ccc(NC(C)=O)cc2)n1,-6.74,"1.3 µM [rising, partial curve]",–
O=C(Cc1ncc(C(F)(F)F)cc1Cl)NCCc1ccccn1,-15.8,–,–

Structure (SMILES),cell number change [%],AC50 [1],AC50 [2]
CCOC(=O)Cc1ccc2sc(-c3ccccc3)nc2c1,24.2,"14.6 µM [rising, single point]",–
C=CCc1ccccc1OCCn1ccnc1,–,"0.58 µM [rising, single point]",–
CN(C1CCCCC1)S(=O)(=O)c1cccc(C#N)c1,-23.9,"0.164 µM [falling, partial curve]","0.146 µM [falling, partial curve, poor fit]"
CCN(CC)c1ccc2c(Cl)cc(=O)oc2c1,13.1,"0.731 µM [falling, full curve]",–
COc1ccc(NS(=O)(=O)c2ccc(C)c(NC(=O)NC3CCCCC3)c2)cc1,16.3,"0.461 µM [rising, partial curve, poor fit]",–
N#CCCS(=O)(=O)c1nnnn1-c1ccccc1,-76.2,"20.6 µM [falling, partial curve]","23.1 µM [falling, partial curve]"
Cc1ccc(C2(C)NC(=O)N(CC(=O)Nc3cc(S(=O)(=O)N4CCOCC4)ccc3C)C2=O)cc1 (stereo not given),5.55,"5.8 µM [falling, full curve]",–
Cc1ccc(NC(=O)CC2S/C(=N/N=C3/NC(=O)CS3)NC2=O)cc1 (stereo not given),-33.3,–,"1.84 µM [falling, partial curve, poor fit]"
Cc1[nH]c2ccccc2c1C(=O)C(=O)N1CCN(c2ccccc2Cl)CC1,6.6,–,–
Cc1cc2cc(CNC(=O)C3CC3)ccc2n1C,–,"20.6 µM [rising, single point]",–
COc1ccc(-c2nn(-c3ccccc3C)cc2CNC(C)Cn2cncn2)cc1F (stereo not given),25.5,–,–
COc1ccccc1CN(C)C(=O)CN1CCN(C(=O)c2cccs2)CC1,-16.4,"1.46 µM [falling, partial curve]",–
COc1ccc(CCn2c(NN)nc3c2c(=O)[nH]c(=O)n3C)cc1,10,–,–
CCCS(=O)(=O)NCCc1csc(-c2ccc(OC)c(OC)c2)n1,14.9,–,"4.11 µM [rising, single point]"
CCOC(=O)C1=C(C)N=c2s/c(=C\c3cccc(OCC(=O)O)c3)c(=O)n2C1c1ccccc1OC (stereo not given),-49.9,"29.1 µM [falling, single point]","29.1 µM [falling, single point]"
CCc1ccc(OCC(=O)N(C)C2CCS(=O)(=O)C2)cc1 (stereo not given),14.4,"6.51 µM [falling, single point]",–
COC(=O)c1ccc(Cn2c(O)c(N=O)c3ccccc32)o1,-8.58,–,–
CCOc1ccc(NC(=O)c2sc(NC(C)=O)c(C(=O)OC)c2C)cc1,10.9,–,–
CN1CCN(C(=O)/C(=C\c2cccnc2)NC(=O)c2cccc(Br)c2)CC1,-0.236,"18.4 µM [rising, partial curve]",–

# Part of the list above, with bars between the fields.
Structure (SMILES) | cell number change [%] | AC50 [1] | AC50 [2]
C=CCc1ccccc1OCCn1ccnc1 | – | 0.58 µM [rising, single point] | –
N#CCCS(=O)(=O)c1nnnn1-c1ccccc1 | -76.2 | 20.6 µM [falling, partial curve] | 23.1 µM [falling, partial curve]
Cc1[nH]c2ccccc2c1C(=O)C(=O)N1CCN(c2ccccc2Cl)CC1 | 6.6 | – | –
Cc1cc2cc(CNC(=O)C3CC3)ccc2n1C | – | 20.6 µM [rising, single point] | –
COc1ccc(-c2nn(-c3ccccc3C)cc2CNC(C)Cn2cncn2)cc1F (stereo not given) | 25.5 | – | –
COC(=O)c1ccc(Cn2c(O)c(N=O)c3ccccc32)o1 | -8.58 | – | –
CN1CCN(C(=O)/C(=C\c2cccnc2)NC(=O)c2cccc(Br)c2)CC1 | -0.236 | 18.4 µM [rising, partial curve] | –
